We go through 1 substance from publication doi:10.1101/153403.

Sequences of proteins named here, by UniProt entry; tags and fusion partners are left off. Residues count along the entry.
UniProt P19883, residues 30-317: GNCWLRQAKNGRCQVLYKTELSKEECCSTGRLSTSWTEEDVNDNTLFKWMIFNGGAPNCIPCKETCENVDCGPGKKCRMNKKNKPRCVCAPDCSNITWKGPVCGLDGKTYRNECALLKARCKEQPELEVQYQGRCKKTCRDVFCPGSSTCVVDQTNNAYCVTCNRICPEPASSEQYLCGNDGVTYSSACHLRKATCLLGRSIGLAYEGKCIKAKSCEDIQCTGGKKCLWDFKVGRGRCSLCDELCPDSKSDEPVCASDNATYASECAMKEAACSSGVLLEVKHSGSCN

No constants are given. Whether binding was seen depends on the method and setting.

This test addresses T1, unprocessed human pro-myostatin (pro-MSTN) (human) (UniProt O14793).
T1 sequence: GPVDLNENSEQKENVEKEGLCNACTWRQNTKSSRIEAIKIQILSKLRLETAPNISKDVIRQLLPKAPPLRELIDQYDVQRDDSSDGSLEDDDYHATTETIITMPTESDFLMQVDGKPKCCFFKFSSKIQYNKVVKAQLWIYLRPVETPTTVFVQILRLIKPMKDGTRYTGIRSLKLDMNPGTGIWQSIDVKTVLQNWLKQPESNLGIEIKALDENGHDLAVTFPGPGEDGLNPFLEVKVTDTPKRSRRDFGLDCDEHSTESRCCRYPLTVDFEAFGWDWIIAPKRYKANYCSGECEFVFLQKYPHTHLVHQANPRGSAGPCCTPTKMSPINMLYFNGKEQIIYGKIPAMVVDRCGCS
The experiment in a line: BLI. For orientation: In BLI a coated tip is dipped into the sample, and binding shifts an interference pattern.

Turning to “follistatin-288 (from UniProt P19883-2 30-317)”, the binding entry was “no binding (tested: 500 nM)”.
